Measurements as given in the supplement of paper PMC10849652.
The list shows a part of the results.

The chains behind the UniProt entries cited, without tags or fusion partners. Where a name states a change or a piece, a line headed by the entry shows the natural chain unless it says otherwise.
UniProt Q9UN37: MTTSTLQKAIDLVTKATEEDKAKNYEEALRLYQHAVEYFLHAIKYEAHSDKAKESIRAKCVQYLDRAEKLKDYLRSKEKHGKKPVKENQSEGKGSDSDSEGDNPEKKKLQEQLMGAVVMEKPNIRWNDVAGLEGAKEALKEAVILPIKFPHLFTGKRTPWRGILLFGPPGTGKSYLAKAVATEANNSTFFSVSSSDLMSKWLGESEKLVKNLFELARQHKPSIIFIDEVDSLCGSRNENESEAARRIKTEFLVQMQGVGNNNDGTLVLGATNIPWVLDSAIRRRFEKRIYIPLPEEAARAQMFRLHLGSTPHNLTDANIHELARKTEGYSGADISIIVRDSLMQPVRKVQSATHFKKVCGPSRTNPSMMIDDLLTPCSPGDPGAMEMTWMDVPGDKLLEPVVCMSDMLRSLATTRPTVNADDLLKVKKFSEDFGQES
UniProt Q96AJ9: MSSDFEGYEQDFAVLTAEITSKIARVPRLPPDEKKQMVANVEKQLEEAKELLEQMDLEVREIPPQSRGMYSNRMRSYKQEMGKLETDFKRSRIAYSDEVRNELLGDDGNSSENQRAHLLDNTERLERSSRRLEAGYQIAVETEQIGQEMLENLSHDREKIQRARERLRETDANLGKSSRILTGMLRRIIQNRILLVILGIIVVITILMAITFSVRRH
UniProt Q6UXN9, whole entry, looked up: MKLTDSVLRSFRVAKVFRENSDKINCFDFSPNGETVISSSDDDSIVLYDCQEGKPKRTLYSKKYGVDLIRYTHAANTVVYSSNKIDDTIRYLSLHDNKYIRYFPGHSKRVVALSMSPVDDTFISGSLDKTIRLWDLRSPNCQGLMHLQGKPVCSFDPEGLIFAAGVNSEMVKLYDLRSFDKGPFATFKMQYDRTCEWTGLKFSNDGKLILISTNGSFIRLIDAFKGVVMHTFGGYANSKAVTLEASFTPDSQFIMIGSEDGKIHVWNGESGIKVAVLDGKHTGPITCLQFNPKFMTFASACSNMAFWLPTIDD
UniProt Q86Y07: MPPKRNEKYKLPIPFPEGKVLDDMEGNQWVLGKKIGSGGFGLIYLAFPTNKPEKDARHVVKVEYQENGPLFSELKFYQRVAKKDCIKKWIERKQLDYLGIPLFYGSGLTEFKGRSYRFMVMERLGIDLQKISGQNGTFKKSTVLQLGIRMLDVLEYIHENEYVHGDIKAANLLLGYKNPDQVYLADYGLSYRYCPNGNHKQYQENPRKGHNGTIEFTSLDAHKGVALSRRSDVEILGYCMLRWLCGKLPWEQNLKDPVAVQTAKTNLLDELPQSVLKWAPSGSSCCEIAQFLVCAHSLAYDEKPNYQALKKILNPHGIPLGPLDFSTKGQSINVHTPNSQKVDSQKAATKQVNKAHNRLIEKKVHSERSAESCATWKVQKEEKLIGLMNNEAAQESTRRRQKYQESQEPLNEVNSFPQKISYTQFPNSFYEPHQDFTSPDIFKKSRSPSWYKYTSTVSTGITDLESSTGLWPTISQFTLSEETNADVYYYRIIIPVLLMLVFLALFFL
UniProt Q9NX94: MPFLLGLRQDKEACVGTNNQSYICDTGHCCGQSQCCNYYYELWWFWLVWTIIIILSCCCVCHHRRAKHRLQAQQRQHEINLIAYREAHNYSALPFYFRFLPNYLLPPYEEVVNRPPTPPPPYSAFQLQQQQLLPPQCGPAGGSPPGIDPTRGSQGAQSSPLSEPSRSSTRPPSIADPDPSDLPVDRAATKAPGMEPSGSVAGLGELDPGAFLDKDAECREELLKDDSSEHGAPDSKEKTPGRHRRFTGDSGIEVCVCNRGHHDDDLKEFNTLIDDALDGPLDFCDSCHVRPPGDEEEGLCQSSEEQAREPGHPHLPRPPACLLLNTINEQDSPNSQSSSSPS
UniProt O75554: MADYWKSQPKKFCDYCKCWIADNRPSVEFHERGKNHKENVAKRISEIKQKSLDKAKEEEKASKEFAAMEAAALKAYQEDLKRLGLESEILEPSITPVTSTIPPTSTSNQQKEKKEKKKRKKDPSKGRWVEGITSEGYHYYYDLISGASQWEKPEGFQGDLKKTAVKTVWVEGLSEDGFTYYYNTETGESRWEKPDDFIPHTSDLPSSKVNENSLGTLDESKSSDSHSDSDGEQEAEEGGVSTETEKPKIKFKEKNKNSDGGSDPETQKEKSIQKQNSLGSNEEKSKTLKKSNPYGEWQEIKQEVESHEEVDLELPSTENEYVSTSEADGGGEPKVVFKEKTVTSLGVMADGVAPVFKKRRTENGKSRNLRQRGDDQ
UniProt Q5JSD2: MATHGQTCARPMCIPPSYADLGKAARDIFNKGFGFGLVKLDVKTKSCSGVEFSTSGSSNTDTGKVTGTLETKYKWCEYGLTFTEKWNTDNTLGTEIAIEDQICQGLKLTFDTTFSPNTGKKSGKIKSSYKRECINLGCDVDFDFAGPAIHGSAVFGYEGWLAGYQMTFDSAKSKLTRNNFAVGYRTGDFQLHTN
UniProt Q2M389: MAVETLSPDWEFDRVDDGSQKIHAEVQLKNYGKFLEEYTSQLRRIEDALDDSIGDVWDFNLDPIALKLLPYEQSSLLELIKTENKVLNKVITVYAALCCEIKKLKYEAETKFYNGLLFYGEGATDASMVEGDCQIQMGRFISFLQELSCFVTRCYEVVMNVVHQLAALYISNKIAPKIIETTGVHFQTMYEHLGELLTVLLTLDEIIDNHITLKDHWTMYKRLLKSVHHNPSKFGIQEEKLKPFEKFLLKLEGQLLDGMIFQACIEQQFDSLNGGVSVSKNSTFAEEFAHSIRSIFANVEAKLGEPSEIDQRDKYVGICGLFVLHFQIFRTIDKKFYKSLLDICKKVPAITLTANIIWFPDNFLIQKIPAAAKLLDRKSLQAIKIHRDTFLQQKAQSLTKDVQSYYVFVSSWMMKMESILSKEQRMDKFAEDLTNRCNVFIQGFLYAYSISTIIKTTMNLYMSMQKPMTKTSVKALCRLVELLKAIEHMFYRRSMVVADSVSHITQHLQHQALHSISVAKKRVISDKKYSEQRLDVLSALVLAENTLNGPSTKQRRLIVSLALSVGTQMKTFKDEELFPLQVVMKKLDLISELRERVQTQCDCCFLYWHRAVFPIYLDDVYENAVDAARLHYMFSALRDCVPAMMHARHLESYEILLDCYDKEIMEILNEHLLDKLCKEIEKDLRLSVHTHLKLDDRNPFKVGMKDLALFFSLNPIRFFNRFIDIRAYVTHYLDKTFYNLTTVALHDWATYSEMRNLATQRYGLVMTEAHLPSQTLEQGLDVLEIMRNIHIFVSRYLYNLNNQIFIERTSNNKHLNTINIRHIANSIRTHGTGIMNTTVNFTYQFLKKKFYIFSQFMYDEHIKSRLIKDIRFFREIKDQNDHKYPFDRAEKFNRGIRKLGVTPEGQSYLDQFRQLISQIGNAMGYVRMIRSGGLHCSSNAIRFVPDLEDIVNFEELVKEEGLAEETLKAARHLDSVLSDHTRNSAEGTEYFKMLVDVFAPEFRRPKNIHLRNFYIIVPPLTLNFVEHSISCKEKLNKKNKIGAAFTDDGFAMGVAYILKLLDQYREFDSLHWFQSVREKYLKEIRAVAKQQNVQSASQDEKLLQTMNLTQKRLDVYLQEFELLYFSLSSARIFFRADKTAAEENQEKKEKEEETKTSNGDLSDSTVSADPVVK
UniProt O95785: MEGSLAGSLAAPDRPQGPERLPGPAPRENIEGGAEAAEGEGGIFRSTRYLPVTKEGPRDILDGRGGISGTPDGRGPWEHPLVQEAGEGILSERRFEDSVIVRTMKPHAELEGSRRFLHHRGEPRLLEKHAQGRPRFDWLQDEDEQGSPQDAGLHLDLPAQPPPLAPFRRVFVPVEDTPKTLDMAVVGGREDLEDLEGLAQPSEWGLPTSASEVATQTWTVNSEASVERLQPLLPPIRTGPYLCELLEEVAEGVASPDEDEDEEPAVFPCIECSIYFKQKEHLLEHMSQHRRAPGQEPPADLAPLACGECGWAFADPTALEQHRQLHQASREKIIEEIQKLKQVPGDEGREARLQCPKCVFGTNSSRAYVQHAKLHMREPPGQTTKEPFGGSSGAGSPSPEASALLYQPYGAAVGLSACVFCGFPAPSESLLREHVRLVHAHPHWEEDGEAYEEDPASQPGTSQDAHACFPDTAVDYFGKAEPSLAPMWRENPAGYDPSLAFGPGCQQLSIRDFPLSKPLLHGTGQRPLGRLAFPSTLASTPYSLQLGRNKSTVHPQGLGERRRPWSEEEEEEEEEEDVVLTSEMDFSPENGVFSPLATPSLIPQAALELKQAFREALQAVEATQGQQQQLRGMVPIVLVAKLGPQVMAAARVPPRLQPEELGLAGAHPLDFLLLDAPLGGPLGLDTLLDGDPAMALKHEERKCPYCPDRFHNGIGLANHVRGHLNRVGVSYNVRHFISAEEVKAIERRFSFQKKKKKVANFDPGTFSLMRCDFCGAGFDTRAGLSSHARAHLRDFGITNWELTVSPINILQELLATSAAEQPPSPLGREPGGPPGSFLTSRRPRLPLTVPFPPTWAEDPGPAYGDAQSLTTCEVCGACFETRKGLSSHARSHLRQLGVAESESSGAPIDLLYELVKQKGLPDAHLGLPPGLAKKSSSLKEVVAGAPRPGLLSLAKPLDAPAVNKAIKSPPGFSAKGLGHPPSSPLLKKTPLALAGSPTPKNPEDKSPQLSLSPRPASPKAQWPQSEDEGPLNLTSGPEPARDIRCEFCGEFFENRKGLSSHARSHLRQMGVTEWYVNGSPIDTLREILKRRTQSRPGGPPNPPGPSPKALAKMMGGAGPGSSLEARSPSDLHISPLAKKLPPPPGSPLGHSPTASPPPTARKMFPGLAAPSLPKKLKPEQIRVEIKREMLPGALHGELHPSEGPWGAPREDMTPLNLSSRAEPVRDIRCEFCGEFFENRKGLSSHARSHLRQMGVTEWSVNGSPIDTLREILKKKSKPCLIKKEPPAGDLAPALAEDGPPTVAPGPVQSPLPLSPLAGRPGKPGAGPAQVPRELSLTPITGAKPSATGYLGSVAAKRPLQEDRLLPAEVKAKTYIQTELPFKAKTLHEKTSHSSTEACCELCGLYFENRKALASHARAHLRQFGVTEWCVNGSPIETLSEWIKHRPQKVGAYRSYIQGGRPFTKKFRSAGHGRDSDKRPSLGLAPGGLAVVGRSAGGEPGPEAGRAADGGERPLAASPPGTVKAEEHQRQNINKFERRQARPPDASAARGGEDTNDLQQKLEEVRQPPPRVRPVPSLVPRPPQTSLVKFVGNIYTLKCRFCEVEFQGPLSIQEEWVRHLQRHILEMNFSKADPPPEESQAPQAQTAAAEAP
UniProt Q5JSH3: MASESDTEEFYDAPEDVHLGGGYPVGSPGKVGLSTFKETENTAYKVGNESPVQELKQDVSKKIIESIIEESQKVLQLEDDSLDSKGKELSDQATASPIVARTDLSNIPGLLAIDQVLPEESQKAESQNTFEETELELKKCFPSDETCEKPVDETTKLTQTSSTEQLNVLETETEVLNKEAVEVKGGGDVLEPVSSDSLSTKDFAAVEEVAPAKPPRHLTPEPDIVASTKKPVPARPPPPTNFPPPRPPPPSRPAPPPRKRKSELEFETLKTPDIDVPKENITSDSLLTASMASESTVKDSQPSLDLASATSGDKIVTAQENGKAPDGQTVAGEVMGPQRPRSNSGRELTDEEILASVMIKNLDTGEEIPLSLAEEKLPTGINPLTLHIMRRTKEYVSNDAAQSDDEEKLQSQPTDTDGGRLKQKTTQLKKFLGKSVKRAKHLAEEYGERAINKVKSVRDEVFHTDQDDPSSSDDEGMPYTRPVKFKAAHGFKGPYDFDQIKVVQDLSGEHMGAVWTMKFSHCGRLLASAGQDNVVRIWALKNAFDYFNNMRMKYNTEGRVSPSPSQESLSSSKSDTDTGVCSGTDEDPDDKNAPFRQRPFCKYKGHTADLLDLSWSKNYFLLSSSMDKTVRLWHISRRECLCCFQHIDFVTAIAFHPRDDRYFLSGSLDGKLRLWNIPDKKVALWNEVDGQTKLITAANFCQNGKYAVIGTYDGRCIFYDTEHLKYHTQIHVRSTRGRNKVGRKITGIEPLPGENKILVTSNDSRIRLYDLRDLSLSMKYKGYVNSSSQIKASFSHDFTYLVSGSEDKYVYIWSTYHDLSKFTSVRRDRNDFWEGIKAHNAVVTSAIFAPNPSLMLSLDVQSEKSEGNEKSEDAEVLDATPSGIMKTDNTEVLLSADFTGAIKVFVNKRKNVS
UniProt Q8IV63: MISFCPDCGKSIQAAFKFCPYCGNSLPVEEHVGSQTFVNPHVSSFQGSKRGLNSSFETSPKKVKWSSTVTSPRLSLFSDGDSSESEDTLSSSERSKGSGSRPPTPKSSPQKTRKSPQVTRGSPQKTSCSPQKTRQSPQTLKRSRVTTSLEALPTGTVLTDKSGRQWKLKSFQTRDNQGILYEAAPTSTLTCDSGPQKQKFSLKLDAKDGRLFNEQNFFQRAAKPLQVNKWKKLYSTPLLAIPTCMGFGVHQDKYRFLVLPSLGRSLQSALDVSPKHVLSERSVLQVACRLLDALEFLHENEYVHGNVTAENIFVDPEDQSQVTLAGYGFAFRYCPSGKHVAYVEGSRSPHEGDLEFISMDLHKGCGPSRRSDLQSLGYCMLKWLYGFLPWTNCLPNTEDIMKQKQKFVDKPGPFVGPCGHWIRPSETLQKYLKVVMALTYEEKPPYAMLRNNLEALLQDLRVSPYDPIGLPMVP

Assays:
Assay in all cases: log2 fold change, soluble protein after heating vs DMSO (PISA); higher = thermal stabilisation; K562 cells, 10 uM, 30 min; active = over 0.2 and 3.5 SD of the protein, either way, in both replicates (recomputed)
[1] = compound: C1=CC=C(C=C1)[C@H](COC2=CC3=C(C=C2)NC(=O)N3)NC(=O)C4=CC=CN(C4=O)CC5=CC(=C(C=C5)F)F
In short: (§1)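 Soluble protein was quantified by TMTpro 16plex LC-MS/MS after channel sums were equalised. It was obtained as the supernatant after 21,000xg for 90 min from pooled aliquots of K562 cells (2×10^6 cells/mL, 10 μM compound, 30 min) heated for 3 min across 48°C-58°C and extracted in PBS with 0.5% NP-40 at 4°C. Thermal stability values are relative to control samples and come from duplicates. They are given as log2 fold changes.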

[2] = compound: CC1=C(SC2=C1C(=N[C@H](C3=NN=C(N32)C)CC(=O)N)C4=CC=C(C=C4)Cl)C
In short: as §1

[3] = compound: CC1=C2C(=CC=C1)N=C(N(C2=O)C3=CC=CC=C3C)CN4C=NC5=C(N=CN=C54)N
In short: as §1

[4] = compound: Cc1sc2c(c1C)C(c1ccc(Cl)cc1)=N[C@@H](CC(=O)OC(C)(C)C)c1nnc(C)n1-2
In short: as §1

[5] = compound: c1ccc([C@@H]2C[C@H]2NC2CCNCC2)cc1
In short: as §1

Measured: log2 fold change

WBP2 (UniProt Q969T9)
inactive: [1] 0.091 | [2] 0.025 | [3] -0.012 | [4] -0.032 | [5] 0.021

WDR19 (UniProt Q8NEZ3)
inactive: [1] -0.019 | [2] 0.116 | [3] 0.363 | [4] -0.105 | [5] 0.013

WIPF2 (UniProt Q8TF74)
inactive: [1] 0.055 | [2] -0.043 | [3] 0.008 | [4] -0.029 | [5] 0.024

VDAC2 (UniProt Q5JSD1)
inactive: [1] -0.217

WNK1 isoform 7 (UniProt Q9H4A3)
inactive: [1] -0.011 | [2] 0.023 | [3] 0.049 | [4] -0.007 | [5] -0.003

VPS4A (UniProt Q9UN37)
inactive: [1] -0.015 | [2] 0.081 | [3] 0.015 | [4] 0.008 | [5] -0.025

VTI1A (UniProt Q96AJ9)
inactive: [1] 0.032 | [2] 0.009 | [3] 0.091 | [4] -0.023 | [5] 0.07

VPS13C (UniProt Q709C8)
inactive: [1] -0.013 | [2] 0.067 | [3] 0.052 | [4] -0.049 | [5] 0.006

WIPF3 (UniProt A6NGB9)
inactive: [1] 0.02 | [2] 0.049 | [3] -0.144 | [4] -0.04 | [5] 0.082

WDR43 (UniProt Q15061)
inactive: [1] 0.026 | [2] 0.027 | [3] 0.009 | [4] -0.009 | [5] 0.001

VIL1 (UniProt P09327)
inactive: [1] 0.046

VIM (UniProt P08670)
inactive: [1] 0.251 | [2] -0.232 | [3] -0.192 | [4] 0.07 | [5] 0.071

WASHC5 (UniProt Q12768)
inactive: [1] 0.034 | [2] 0.042 | [3] 0.09 | [4] 0.003 | [5] -0.041

VPS18 (UniProt Q9P253)
inactive: [1] 0.014 | [2] -0.052 | [3] -0.03 | [4] -0.03 | [5] 0.004

WDR75 (UniProt Q8IWA0)
inactive: [1] -0.031 | [2] -0.24 | [3] 0.002 | [4] 0.304 | [5] -0.089

WDR82 (UniProt Q6UXN9)
inactive: [1] 0.021 | [2] -0.124 | [3] -0.084 | [4] 0.078 | [5] -0.01

VPS8 (UniProt Q8N3P4)
inactive: [1] -0.08 | [2] 0.106 | [3] 0.042 | [4] -0.034 | [5] 0.017

WIPF1 isoform 3 (UniProt O43516)
inactive: [1] -0.012 | [2] 0.159 | [3] -0.007 | [4] 0.102 | [5] 0.149

VPS35 (UniProt Q96QK1)
inactive: [1] -0.043 | [2] 0.001 | [3] 0.018 | [4] -0.006 | [5] -0.018

VRK2 (UniProt Q86Y07)
inactive: [1] 0.001 | [2] 0.004 | [3] 0.011 | [4] 0.005 | [5] -0.083

WDR4 isoform 3 (UniProt P57081)
inactive: [1] -0.18

WARS2 (UniProt Q9UGM6)
inactive: [1] -0.025 | [2] -0.009 | [3] 0.104 | [4] -0.002 | [5] 0.06

WDR46 (UniProt O15213)
inactive: [1] 0.058 | [2] -0.35 | [3] -0.302 | [4] 0.246 | [5] -0.005

WAPL isoform 3 (UniProt Q7Z5K2)
inactive: [1] -0.116 | [2] 0.021 | [3] 0.138 | [4] -0.08 | [5] 0.095

WARS1 (UniProt G3V3P2)
inactive: [1] 0.095

VPS41 (UniProt P49754)
inactive: [1] -0.028 | [2] 0.06 | [3] 0.152 | [4] -0.017 | [5] -0.052

VPS50 (UniProt Q96JG6)
inactive: [1] -0.039 | [2] 0.055 | [3] 0.022 | [4] -0.013 | [5] 0.01

VPS13A (UniProt Q96RL7)
inactive: [1] -0.001 | [2] 0.036 | [3] 0.007 | [4] -0.045 | [5] -0.002

VGF (UniProt O15240)
inactive: [1] -0.668

WDR48 (UniProt Q8TAF3)
inactive: [1] 0.025 | [2] 0.009 | [3] 0.009 | [4] -0.018 | [5] -0.001

VCX3B (UniProt Q9H321)
inactive: [1] 0.001 | [2] -0.007 | [3] 0.023 | [4] -0.014 | [5] 0.015

WARS1 (UniProt G3V5U1)
inactive: [1] 0.193

WBP1L isoform 2 (UniProt Q9NX94)
inactive: [1] 0.29

VPS25 (UniProt Q9BRG1)
inactive: [1] -0.012 | [2] 0.137 | [3] 0.07 | [4] -0.104 | [5] -0.031

WARS (UniProt P23381)
inactive: [1] 0.032 | [2] 0.013 | [3] 0.015 | [4] -0.018 | [5] -0.03

WBP4 (UniProt O75554)
inactive: [1] 0.012 | [2] 0.009 | [3] -0.024 | [4] 0.014 | [5] 0.051

VDAC2 (UniProt Q5JSD2)
inactive: [1] -0.12

WDR91 (UniProt A4D1P6)
inactive: [1] -0.064 | [2] -0.059 | [3] 0.056 | [4] -0.043 | [5] 0.016

WDCP (UniProt Q9H6R7)
inactive: [1] 0.013 | [2] 0 | [3] -0.015 | [4] 0.039 | [5] 0.145

WDR53 (UniProt Q7Z5U6)
inactive: [1] 0.078 | [2] -0.115 | [3] 0.067 | [4] -0.016 | [5] 0.1

WASHC4 (UniProt Q2M389)
inactive: [1] -0.042 | [2] -0.037 | [3] 0.128 | [4] 0.056 | [5] 0.06

WRAP73 (UniProt Q9P2S5)
inactive: [1] 0.052 | [2] 0.036 | [3] 0.09 | [4] -0.022 | [5] 0.001

WDR61 (UniProt Q9GZS3)
inactive: [1] -0.035 | [2] 0.04 | [3] 0.077 | [4] 0.032 | [5] 0.012

WDR3 (UniProt Q9UNX4)
inactive: [1] -0.02 | [2] -0.238 | [3] -0.112 | [4] 0.177 | [5] 0.023

VPS51 (UniProt Q9UID3)
inactive: [1] -0.047 | [2] 0.026 | [3] 0.047 | [4] -0.048 | [5] -0.044

WASF2 (UniProt Q9Y6W5)
inactive: [1] 0.023 | [2] 0.016 | [3] 0.064 | [4] 0.024 | [5] 0.021

VPS45 (UniProt Q9NRW7)
inactive: [1] 0.104 | [2] -0.013 | [3] 0.076 | [4] -0.057 | [5] -0.052

WASHC2A (UniProt Q641Q2)
inactive: [1] -0.006 | [2] -0.041 | [3] -0.017 | [4] 0.069 | [5] 0.033

WASH2P (UniProt Q6VEQ5)
inactive: [1] 0.015 | [2] -0.015 | [3] 0.026 | [4] 0.041 | [5] 0.027

WIZ (UniProt O95785)
inactive: [1] 0 | [2] -0.003 | [3] 0.06 | [4] 0.038 | [5] 0.023

WDR5 (UniProt P61964)
inactive: [1] 0.04 | [2] -0.121 | [3] -0.129 | [4] 0.003 | [5] 0.034

3 consecutive entries from above, quoted:
WASF2 (UniProt Q9Y6W5)
inactive: [1] 0.023 | [2] 0.016 | [3] 0.064 | [4] 0.024 | [5] 0.021

VPS45 (UniProt Q9NRW7)
inactive: [1] 0.104 | [2] -0.013 | [3] 0.076 | [4] -0.057 | [5] -0.052

WASHC2A (UniProt Q641Q2)
inactive: [1] -0.006 | [2] -0.041 | [3] -0.017 | [4] 0.069 | [5] 0.033

(list continues)

WASF1 (UniProt Q92558)
inactive: [1] -0.018 | [2] -0.065 | [3] 0.006 | [4] -0.009 | [5] 0.061

VPS26B (UniProt Q4G0F5)
inactive: [1] -0.057 | [2] 0.07 | [3] 0.066 | [4] 0.011 | [5] -0.001

WDR44 (UniProt Q5JSH3)
inactive: [1] 0.005 | [2] 0.025 | [3] 0.043 | [4] -0.008 | [5] 0.005

VKORC1 (UniProt Q9BQB6)
inactive: [1] -0.058 | [2] 0.132 | [3] 0.083 | [4] -0.183 | [5] -0.012

VIPAS39 (UniProt Q9H9C1)
inactive: [1] -0.111 | [2] -0.188 | [3] 0.068 | [4] 0.044 | [5] -0.037

WDR18 (UniProt Q9BV38)
inactive: [1] 0 | [2] 0.011 | [3] -0.019 | [4] -0.037 | [5] 0.019

VRK3 (UniProt Q8IV63)
inactive: [1] 0.034 | [2] -0.011 | [3] 0.02 | [4] -0.118 | [5] 0.032
